Laboratory results: patent US20190388522A1
Results are given in words; binding and its absence hold for the method and conditions named. Some binding calls cover weakened binding; strength is not graded here.

Protein sequences, listed by entry. Tags and fused reporters are not part of them. Residues count along the entry.
UniProt P24055, residues 33-292: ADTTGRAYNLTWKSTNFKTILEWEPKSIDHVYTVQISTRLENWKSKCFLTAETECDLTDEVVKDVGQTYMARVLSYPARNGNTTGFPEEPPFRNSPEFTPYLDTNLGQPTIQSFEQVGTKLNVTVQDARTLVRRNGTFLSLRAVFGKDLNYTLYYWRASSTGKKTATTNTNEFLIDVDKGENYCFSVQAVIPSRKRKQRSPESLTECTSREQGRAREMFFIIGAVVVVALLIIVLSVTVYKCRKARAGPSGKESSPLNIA
UniProt P08709, residues 61-466: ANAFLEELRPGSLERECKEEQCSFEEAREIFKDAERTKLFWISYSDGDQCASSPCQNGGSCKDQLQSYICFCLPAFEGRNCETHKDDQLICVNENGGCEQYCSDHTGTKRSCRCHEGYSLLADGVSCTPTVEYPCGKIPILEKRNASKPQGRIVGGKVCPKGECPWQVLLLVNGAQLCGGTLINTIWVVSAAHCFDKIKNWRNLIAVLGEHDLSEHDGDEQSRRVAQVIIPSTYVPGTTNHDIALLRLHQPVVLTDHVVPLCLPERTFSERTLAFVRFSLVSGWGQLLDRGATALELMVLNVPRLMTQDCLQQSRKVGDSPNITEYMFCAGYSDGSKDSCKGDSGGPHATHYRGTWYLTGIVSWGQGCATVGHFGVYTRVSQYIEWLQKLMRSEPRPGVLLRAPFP

Biological target: Lipidated rabbit tissue factor (rabbit) (UniProt P24055)
Test: SPR (Biacore), lipidated TF on chip

Human Factor VIIa (from UniProt P08709 61-466) (enzyme)
binding: binds
